For this series, the target named is MBP-EIN3N (UniProt O24606). The series is described as follows: EMSA. The following applies: + GST-FHY3 (aa 186-839), 4 or 8 ug; LightShift Chemiluminescent EMSA kit (Pierce), 10 min at room temperature, 6% native polyacrylamide gel; salt and pH not stated; recombinant protein; residues 141-352; protein details: MBP; label: biotin.

Sequences of proteins named here, by UniProt entry; tags and fusion partners are left off. Residues count along the entry.
UniProt O24606, 141-352: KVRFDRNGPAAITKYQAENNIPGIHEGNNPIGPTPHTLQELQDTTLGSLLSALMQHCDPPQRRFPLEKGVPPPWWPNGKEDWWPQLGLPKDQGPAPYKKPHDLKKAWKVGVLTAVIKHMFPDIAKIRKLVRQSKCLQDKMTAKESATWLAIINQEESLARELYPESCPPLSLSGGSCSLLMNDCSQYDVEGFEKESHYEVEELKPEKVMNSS

Construct, isoform or probe ends are uncertain for at least one entry. Weaker means in comparison with the reference protein, sequence or condition of that experiment.

In the case of “ATACTTTACAAGGTTCATGCATGCATAC (double strand) [ORE1 EBS]”, the binding result is “binds more weakly”.

For the origin of these results see paper PMC8584998.
